Compound in the assay: Nc1ncnc2c1ncn2[C@@H]1O[C@H](COP(=O)(O)OP(=O)(O)NP(=O)(O)O)[C@@H](O)[C@H]1O [adenylyl imidodiphosphate]
As to the kind of experiment: NP40-soluble protein abundance relative to vehicle (solubility fold change) (ratio); higher = more soluble protein in presence of AMP-PNP. Put shortly:
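Data come from three independent experiments in which Dounce-homogenised Jurkat crude lysate was treated at eight concentrations from 0.1 to 10 mM. Treatment ran 10 min at room temperature and then 3 min at 37 °C, after which 0.8% NP40 and benzonase were added for 60 min at 4 °C before ultracentrifugation. The supernatant underwent TMT labelling and LC-MS/MS, and vsn-normalised intensities were expressed as fold change against the detergent-processed vehicle in each replicate.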

By UniProt entry, the sequences of proteins in these tests, tags left out. Where a name states a change or a piece, a line headed by the entry shows the natural chain unless it says otherwise.
UniProt Q6IBS0: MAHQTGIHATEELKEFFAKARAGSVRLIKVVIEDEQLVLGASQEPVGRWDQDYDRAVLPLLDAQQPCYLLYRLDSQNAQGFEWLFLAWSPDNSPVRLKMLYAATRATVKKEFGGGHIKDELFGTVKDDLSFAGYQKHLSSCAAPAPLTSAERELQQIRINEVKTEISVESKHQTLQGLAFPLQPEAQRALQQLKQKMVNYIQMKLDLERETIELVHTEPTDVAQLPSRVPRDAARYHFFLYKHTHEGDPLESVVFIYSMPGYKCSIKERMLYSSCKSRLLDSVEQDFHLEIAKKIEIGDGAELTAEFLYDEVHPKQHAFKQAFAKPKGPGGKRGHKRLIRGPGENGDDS
UniProt Q69YN2: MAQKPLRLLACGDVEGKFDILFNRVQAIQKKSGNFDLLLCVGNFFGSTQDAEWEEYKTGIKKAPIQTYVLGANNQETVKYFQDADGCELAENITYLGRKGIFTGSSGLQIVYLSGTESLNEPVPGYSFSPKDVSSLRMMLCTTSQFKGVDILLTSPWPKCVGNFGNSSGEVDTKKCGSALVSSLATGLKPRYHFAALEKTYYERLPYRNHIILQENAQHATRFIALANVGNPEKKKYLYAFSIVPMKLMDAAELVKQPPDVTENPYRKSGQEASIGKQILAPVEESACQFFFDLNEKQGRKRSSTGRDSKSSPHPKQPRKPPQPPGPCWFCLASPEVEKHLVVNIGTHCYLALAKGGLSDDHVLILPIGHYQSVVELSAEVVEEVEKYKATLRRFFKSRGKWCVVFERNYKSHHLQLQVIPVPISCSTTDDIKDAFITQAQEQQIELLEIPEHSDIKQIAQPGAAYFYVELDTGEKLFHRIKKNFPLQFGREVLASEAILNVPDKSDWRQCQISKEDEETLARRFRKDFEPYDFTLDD
UniProt Q6P4F7: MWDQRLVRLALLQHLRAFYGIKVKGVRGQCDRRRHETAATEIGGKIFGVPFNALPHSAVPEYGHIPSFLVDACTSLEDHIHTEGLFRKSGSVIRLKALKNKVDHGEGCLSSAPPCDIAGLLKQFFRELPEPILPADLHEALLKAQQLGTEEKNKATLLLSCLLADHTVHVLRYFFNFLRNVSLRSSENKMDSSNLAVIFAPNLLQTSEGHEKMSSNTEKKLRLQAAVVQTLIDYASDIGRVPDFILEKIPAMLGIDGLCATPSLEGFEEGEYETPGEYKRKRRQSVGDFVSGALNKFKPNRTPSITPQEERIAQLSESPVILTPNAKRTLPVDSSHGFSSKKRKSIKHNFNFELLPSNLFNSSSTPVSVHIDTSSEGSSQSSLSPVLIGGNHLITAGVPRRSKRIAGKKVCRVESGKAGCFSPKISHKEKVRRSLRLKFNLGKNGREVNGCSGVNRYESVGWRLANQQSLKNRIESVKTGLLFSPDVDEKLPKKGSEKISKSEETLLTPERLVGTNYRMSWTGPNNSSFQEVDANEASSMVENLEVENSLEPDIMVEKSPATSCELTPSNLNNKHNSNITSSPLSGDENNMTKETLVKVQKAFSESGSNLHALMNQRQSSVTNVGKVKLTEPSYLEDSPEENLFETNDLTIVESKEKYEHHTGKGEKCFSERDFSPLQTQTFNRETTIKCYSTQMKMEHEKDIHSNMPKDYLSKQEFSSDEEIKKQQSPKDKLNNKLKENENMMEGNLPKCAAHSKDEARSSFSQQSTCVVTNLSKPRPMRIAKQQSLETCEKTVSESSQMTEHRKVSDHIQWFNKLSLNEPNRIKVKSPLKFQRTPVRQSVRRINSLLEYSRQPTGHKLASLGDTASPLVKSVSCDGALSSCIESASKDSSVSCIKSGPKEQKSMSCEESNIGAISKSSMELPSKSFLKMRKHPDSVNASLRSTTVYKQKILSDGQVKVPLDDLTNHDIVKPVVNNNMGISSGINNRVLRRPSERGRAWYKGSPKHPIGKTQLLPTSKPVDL
UniProt Q7Z4H3: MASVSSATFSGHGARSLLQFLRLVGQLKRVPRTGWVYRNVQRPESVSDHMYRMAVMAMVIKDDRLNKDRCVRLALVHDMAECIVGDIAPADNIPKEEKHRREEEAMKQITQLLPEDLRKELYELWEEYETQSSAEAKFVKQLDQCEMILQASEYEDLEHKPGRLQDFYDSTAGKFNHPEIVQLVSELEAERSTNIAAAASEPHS
UniProt Q6STE5, whole entry: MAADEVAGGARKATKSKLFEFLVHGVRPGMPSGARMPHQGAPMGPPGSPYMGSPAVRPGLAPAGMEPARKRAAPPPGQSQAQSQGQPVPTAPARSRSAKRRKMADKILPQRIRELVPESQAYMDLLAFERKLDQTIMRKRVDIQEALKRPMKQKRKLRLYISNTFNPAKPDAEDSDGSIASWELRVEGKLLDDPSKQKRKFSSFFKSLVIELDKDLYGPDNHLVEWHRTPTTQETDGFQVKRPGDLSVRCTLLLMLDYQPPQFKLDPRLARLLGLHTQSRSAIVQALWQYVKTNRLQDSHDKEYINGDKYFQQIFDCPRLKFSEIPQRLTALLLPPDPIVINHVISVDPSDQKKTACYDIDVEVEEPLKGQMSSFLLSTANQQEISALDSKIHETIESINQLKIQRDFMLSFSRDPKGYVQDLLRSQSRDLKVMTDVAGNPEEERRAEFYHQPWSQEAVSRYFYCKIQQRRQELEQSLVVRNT
UniProt Q6DHV7: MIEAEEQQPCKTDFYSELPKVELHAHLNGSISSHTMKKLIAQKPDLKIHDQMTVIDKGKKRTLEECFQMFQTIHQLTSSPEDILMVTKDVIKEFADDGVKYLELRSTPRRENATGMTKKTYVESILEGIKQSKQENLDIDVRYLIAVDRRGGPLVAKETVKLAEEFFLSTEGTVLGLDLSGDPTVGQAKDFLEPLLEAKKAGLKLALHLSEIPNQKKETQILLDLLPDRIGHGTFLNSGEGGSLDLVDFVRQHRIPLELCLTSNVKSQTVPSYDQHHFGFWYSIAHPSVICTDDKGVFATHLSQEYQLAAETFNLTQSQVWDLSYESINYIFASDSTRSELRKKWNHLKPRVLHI
UniProt Q68CQ7: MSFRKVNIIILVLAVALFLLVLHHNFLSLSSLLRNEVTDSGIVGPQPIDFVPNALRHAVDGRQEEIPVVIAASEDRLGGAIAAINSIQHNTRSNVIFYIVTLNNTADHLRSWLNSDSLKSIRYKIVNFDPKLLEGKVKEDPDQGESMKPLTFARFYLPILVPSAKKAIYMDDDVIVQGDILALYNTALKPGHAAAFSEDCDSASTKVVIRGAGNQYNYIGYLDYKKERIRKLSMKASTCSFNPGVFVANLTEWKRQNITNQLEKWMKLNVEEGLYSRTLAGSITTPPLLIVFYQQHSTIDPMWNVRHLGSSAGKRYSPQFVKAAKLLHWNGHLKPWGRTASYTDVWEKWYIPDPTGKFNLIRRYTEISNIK
UniProt Q6P179: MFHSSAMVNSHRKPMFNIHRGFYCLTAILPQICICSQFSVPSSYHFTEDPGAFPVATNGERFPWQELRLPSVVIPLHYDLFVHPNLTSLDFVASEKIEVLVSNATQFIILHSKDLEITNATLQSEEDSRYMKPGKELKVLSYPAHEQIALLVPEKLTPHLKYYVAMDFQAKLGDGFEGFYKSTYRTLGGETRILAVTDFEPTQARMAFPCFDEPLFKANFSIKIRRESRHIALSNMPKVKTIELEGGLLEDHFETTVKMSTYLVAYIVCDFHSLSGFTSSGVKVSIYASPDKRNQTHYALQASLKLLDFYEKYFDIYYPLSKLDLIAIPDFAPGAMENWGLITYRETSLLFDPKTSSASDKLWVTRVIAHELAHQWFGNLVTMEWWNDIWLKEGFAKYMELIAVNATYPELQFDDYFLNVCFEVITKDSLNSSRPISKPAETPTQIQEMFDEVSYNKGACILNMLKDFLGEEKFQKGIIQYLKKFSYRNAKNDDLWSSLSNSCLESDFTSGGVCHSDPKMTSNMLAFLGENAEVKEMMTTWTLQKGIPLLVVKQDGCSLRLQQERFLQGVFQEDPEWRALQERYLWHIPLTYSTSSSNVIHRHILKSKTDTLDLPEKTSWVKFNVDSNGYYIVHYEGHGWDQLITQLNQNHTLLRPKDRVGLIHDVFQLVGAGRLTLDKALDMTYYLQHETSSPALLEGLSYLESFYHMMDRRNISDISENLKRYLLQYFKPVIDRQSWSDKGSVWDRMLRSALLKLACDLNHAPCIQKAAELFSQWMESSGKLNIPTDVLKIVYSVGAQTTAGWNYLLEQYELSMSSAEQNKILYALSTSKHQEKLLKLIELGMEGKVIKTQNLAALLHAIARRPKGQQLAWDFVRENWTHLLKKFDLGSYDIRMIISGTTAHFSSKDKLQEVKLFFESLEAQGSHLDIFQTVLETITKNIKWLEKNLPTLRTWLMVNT
UniProt Q7Z422: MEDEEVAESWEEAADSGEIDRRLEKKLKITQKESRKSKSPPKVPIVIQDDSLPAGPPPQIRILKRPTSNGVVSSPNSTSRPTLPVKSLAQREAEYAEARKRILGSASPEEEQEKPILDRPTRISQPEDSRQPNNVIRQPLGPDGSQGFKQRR
UniProt Q9NWW6: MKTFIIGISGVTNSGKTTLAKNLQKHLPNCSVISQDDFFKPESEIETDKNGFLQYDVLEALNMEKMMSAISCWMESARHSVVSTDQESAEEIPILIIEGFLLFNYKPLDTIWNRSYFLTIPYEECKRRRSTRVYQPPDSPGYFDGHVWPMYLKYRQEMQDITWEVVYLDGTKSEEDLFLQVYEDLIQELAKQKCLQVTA
UniProt Q6UWP7: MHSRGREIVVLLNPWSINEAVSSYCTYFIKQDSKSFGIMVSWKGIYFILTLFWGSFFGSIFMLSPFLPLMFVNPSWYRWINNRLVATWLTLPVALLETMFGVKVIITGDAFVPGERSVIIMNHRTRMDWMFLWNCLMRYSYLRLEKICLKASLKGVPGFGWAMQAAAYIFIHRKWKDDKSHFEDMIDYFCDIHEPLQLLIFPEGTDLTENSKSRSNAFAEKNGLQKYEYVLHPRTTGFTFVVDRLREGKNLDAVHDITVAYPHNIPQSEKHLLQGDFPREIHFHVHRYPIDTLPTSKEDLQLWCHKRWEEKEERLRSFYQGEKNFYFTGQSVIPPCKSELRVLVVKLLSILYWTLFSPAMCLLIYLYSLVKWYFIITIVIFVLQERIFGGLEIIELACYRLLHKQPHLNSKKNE
UniProt Q7Z4Q2: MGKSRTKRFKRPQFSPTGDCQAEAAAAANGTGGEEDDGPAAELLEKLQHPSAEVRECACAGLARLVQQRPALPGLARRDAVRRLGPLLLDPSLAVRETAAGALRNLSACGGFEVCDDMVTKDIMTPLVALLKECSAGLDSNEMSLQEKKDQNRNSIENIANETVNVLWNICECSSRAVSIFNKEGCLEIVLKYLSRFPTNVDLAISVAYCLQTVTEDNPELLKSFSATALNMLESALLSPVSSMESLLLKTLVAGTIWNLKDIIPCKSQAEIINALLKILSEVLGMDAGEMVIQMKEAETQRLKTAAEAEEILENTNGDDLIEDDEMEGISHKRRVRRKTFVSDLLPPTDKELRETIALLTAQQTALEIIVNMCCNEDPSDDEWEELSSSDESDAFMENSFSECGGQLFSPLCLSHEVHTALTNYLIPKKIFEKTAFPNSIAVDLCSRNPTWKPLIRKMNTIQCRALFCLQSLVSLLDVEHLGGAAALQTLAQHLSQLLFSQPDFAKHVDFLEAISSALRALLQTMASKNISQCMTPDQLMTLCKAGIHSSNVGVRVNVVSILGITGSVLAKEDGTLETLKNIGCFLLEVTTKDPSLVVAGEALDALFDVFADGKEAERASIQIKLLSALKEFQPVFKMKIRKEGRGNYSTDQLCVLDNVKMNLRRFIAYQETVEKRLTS
UniProt Q71SY5: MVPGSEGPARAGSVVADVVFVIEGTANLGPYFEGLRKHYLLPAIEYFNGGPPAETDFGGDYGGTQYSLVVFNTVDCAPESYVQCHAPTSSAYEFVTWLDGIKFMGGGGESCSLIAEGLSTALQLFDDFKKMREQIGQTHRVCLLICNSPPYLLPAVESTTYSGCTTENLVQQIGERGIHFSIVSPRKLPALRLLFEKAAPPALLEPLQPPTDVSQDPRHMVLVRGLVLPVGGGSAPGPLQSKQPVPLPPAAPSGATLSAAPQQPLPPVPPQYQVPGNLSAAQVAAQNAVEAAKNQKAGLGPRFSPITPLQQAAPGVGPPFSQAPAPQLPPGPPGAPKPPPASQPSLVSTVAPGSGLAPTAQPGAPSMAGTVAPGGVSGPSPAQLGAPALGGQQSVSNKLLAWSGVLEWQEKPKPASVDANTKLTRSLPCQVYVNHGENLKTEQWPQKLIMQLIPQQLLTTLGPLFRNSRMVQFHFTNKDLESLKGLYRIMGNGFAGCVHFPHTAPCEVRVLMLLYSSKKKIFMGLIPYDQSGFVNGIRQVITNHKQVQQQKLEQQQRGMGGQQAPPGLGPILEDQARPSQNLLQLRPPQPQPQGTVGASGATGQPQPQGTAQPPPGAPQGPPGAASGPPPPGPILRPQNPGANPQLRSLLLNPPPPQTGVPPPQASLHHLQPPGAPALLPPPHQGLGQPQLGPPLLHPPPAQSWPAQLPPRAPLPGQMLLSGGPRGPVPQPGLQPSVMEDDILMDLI

± gives the standard deviation of the averaged measurements. The entries are a selection whose mix differs from that of the whole data set. Most values lie at the level of the controls, where differences are scatter.

In the case of CEP350 (UniProt Q5VT06), the NP40-soluble protein abundance came out at 0.9721 ± 0.009 (concentration: 0.1mM) and 0.969 ± 0.018 (concentration: 0.5mM).

Consider TWF2 (UniProt Q6IBS0), for which the NP40-soluble protein abundance runs as follows: (concentration: 0.1mM) 0.98 ± 0.033; (concentration: 0.5mM) 1 ± 0.072.

As to PAXIP1 (UniProt Q6ZW49), the NP40-soluble protein abundance stood at 1.01 ± 0.031 (concentration: 0.1mM) and 1.03 ± 0.048 (concentration: 0.5mM).

Consider CWF19L1 (UniProt Q69YN2), for which the NP40-soluble protein abundance runs as follows: (concentration: 0.1mM) 0.9537 ± 0.0092; (concentration: 0.5mM) 0.991 ± 0.027.

As to ARHGAP11A (UniProt Q6P4F7), the NP40-soluble protein abundance by setting is: (concentration: 0.1mM) 1.043 ± 0.0085; (concentration: 0.5mM) 0.988 ± 0.031.

Regarding UniProt Q7Z4H3 and related entries, the NP40-soluble protein abundance amounted to 0.978 ± 0.07 (concentration: 0.1mM) and 1.02 ± 0.092 (concentration: 0.5mM).

With “Q76L82 and related entries (UniProt Q8IXJ9+Q76L82)”, the NP40-soluble protein abundance runs as follows: (concentration: 0.1mM) 0.978 ± 0.015; (concentration: 0.5mM) 1 ± 0.024.

For the target EDC4 (UniProt Q6P2E9), the NP40-soluble protein abundance (concentration: 0.1mM) was 0.982 ± 0.0099 and the NP40-soluble protein abundance (concentration: 0.5mM) came to 1.01 ± 0.023.

Turning to ZFYVE16 (UniProt Q7Z3T8), the NP40-soluble protein abundance by setting is: (concentration: 0.1mM) 0.972 ± 0.022; (concentration: 0.5mM) 0.993 ± 0.037.

On to UniProt Q6STE5 and related entries, for which the NP40-soluble protein abundance came to 1.02 ± 0.027 (concentration: 0.1mM) and 0.9996 ± 0.0073 (concentration: 0.5mM).

For UniProt Q6DHV7 and related entries, the NP40-soluble protein abundance runs as follows: (concentration: 0.1mM) 1 ± 0.026; (concentration: 0.5mM) 1.01 ± 0.012.

For the target GLT8D1 (UniProt Q68CQ7), the NP40-soluble protein abundance (concentration: 0.1mM) was found to be 1.025 ± 0.0057 and the NP40-soluble protein abundance (concentration: 0.5mM) stood at 1.012 ± 0.0043.

As to ERAP2 (UniProt Q6P179), the NP40-soluble protein abundance (concentration: 0.1mM) worked out at 1 ± 0.057 and the NP40-soluble protein abundance (concentration: 0.5mM) is 1.01 ± 0.062.

For UniProt Q7Z422 and related entries, the NP40-soluble protein abundance is 1.03 ± 0.042 (concentration: 0.1mM) and 1.05 ± 0.026 (concentration: 0.5mM).

With “Q5W125 and related entries (UniProt Q9NWW6)”, the NP40-soluble protein abundance (concentration: 0.1mM) was 0.9741 ± 0.0059 and the NP40-soluble protein abundance (concentration: 0.5mM) amounted to 0.98 ± 0.013.

Turning to UniProt Q6UWP7 and related entries, the NP40-soluble protein abundance (concentration: 0.1mM) worked out at 1.01 ± 0.03 and the NP40-soluble protein abundance (concentration: 0.5mM) is 0.991 ± 0.057.

As to HEATR3 (UniProt Q7Z4Q2), the NP40-soluble protein abundance was found to be 1.02 ± 0.016 (concentration: 0.1mM) and 1.01 ± 0.014 (concentration: 0.5mM).

On to UniProt Q71SY5 and related entries, for which the NP40-soluble protein abundance reads like this: (concentration: 0.1mM) 1.03 ± 0.062; (concentration: 0.5mM) 1.05 ± 0.088.

UniProt Q6PJW8: the NP40-soluble protein abundance turned out to be 0.996 ± 0.0068 (concentration: 0.1mM) and 0.979 ± 0.029 (concentration: 0.5mM).

As for HEATR6 (UniProt Q6AI08), the NP40-soluble protein abundance was found to be 1.01 ± 0.038 (concentration: 0.1mM) and 1.02 ± 0.022 (concentration: 0.5mM).

Regarding UniProt Q7L5N7 and related entries, the NP40-soluble protein abundance reads like this: (concentration: 0.1mM) 1.01 ± 0.013; (concentration: 0.5mM) 1.02 ± 0.025.

For the origin of these results see the supplement of paper PMC6411743.
